Data as given in PubChem BioAssay AID1259308 (NCATS, 2017).

Purpose: 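Knock-downs that increase output of a recombinant reporter protein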 (primary screen)
Cell system: human HEK293 embryonic kidney cells stably expressing firefly luciferase (HEK-CMV-Luc2-Hygro)
Reagents: single siRNA against human genes, 0.8 pmol siRNA per well
Time to read-out: 72 h
Measurement: 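Reporter luminescence and viable-cell signal on separate replicate plates, given as percent of non-targeting control and median/MAD z-scores, plus per-cell luciferase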
Direction: total luciferase, z-score: higher = more reporter protein produced
Hit rule: 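Active when the median/MAD z-score for overall luciferase is greater than 3; a gene was taken forward for validation with new siRNAs if at least two of its three siRNAs passed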
Meaning of the calls: active = raised luciferase; inactive = no rise
Shown is one part, drawn at random, of about 59,000 reagents. Over the whole deposit, about 1,510 (2.6%) were called active. 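Calls use total luciferase alone and ignore viability, so some active siRNAs may act by altering cell number.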 The numbers tell different reagents against one gene apart. Not all columns of the deposit are shown. No sequences are given here.

| target | reagent no. | total luciferase, z-score | outcome |
| --- | --- | --- | --- |
| TUBA3C | 1 | -0.13 | inactive |
| TUBA3C | 2 | -0.875 | inactive |
| TUBA3C | 3 | -0.103 | inactive |
| OTUD7A | 1 | -0.17 | inactive |
| OTUD7A | 2 | 0.0733 | inactive |
| OTUD7A | 3 | 0.57 | inactive |
| CA8 | 1 | 0.981 | inactive |
| CA8 | 2 | -0.139 | inactive |
| CA8 | 3 | 1.28 | inactive |
| SLC4A11 | 1 | -0.0979 | inactive |
| SLC4A11 | 2 | -1.2 | inactive |
| SLC4A11 | 3 | 0.558 | inactive |
| ABCC6 | 1 | 0.58 | inactive |
| ABCC6 | 2 | 0.245 | inactive |
| ABCC6 | 3 | 1.73 | inactive |
| SPINK2 | 1 | 0.318 | inactive |
| SPINK2 | 2 | 0.201 | inactive |
| SPINK2 | 3 | 0.233 | inactive |
| PHLDA3 | 1 | 2.03 | inactive |
| PHLDA3 | 2 | 0.862 | inactive |
| PHLDA3 | 3 | 0.161 | inactive |
| ORC5 | 1 | -0.644 | inactive |
| ORC5 | 2 | 1.69 | inactive |
| ORC5 | 3 | -1.45 | inactive |
